Values from PubChem BioAssay AID602196 (INSERM, 2012).
Screen: 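Modifiers of cisplatin sensitivity in A549 cells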. System: human A549 lung cancer cells. Reagent: siRNA pair against human genes. Duration: 48 h transfection before cisplatin; time from cisplatin to read-out not stated. Treatment: cisplatin at a dose killing half of control-siRNA cells; exact dose and duration not given. Read-out: 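Shift in cisplatin death relative to control siRNA, from -50 (all cells die) to +50 (no cells die); siRNAs harmful on their own scored 0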. Reading the numbers: two-siRNA summed score (-2 to +2): higher = both siRNAs protect from cisplatin killing; -2 means both sensitise. Call rule: 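Each siRNA scores 0 if harmful alone by LDH or WST-1, otherwise +1 if it reduces and -1 if it increases cisplatin killing; a gene is active when both siRNAs agree (sum +2 or -2)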. Calls: active = both siRNAs shift cisplatin killing the same way; inactive = no consistent shift, or siRNA harmful alone.
Shown is an unselected part of about 23,000 reagents. 455 of all reagents (2%) count as active. 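Active includes both protection and sensitisation; some change values fall well beyond the stated -50 to +50 range.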 The numbers tell different reagents against one gene apart. Not all columns of the deposit are shown. Not given: the amount of reagent.

For SLC6A6, what does the deposit list?
two-siRNA summed score (-2 to +2): 0; Call: inactive

What did the screen give for SEC16A (SEC16 homolog A, endoplasmic reticulum export factor)?
two-siRNA summed score (-2 to +2): 1; Call: inactive

With NMNAT1 (nicotinamide nucleotide adenylyltransferase 1), what does the deposit list?
two-siRNA summed score (-2 to +2): 0; Call: inactive

Which result is listed for RUFY4 (RUN and FYVE domain containing 4)?
two-siRNA summed score (-2 to +2): 1; Call: inactive

With LOC401206, how do the results read?
two-siRNA summed score (-2 to +2): 0; Call: inactive

With YES1 (YES proto-oncogene 1, Src family tyrosine kinase), what was measured?
two-siRNA summed score (-2 to +2): 0; Call: inactive

How did the screen score KCNK15 (potassium two pore domain channel subfamily K member 15)?
two-siRNA summed score (-2 to +2): 0; Call: inactive

For PCDHB15 (protocadherin beta 15), what does the deposit list?
two-siRNA summed score (-2 to +2): 0; Call: inactive

Which result is listed for CLSPN (claspin)?
two-siRNA summed score (-2 to +2): 0; Call: inactive

For LOC400764, what does the deposit list?
two-siRNA summed score (-2 to +2): 0; Call: inactive

For FOXQ1 (forkhead box Q1), what was measured?
two-siRNA summed score (-2 to +2): 0; Call: inactive

Which result is listed for ANAPC2 (anaphase promoting complex subunit 2)?
two-siRNA summed score (-2 to +2): 0; Call: inactive

What is on record for FBXW11 (F-box and WD repeat domain containing 11)?
two-siRNA summed score (-2 to +2): -1; Call: inactive

What is on record for KLK13 (kallikrein related peptidase 13)?
two-siRNA summed score (-2 to +2): 0; Call: inactive

For PPARD (peroxisome proliferator activated receptor delta), what was measured?
two-siRNA summed score (-2 to +2): -1; Call: inactive

With ALKBH1 (alkB homolog 1, histone H2A dioxygenase), what was measured?
two-siRNA summed score (-2 to +2): 0; Call: inactive

Which result is listed for MAP2 (microtubule associated protein 2)?
two-siRNA summed score (-2 to +2): 0; Call: inactive

For KIAA1937, what was measured?
two-siRNA summed score (-2 to +2): 0; Call: inactive

With SLC16A6, how do the results read?
two-siRNA summed score (-2 to +2): 0; Call: inactive

How did the screen score DPH3 (diphthamide biosynthesis 3)?
two-siRNA summed score (-2 to +2): 1; Call: inactive

How did the screen score LYSMD2 (LysM domain containing 2)?
two-siRNA summed score (-2 to +2): 0; Call: inactive

What did the screen give for PRR13P5 (proline rich 13 pseudogene 5)?
two-siRNA summed score (-2 to +2): 1; Call: inactive

What is on record for LOC440259?
two-siRNA summed score (-2 to +2): 0; Call: inactive

Which result is listed for LOC402037?
two-siRNA summed score (-2 to +2): -1; Call: inactive

What did the screen give for GAPDH (glyceraldehyde-3-phosphate dehydrogenase)?
two-siRNA summed score (-2 to +2): 0; Call: inactive

Which result is listed for DPF3 (double PHD fingers 3)?
two-siRNA summed score (-2 to +2): 0; Call: inactive

With CCR3 (C-C motif chemokine receptor 3), what was measured?
two-siRNA summed score (-2 to +2): 0; Call: inactive

What did the screen give for MAP2K4 (mitogen-activated protein kinase kinase 4)?
two-siRNA summed score (-2 to +2): 1; Call: inactive

With TIGD7 (tigger transposable element derived 7), how do the results read?
two-siRNA summed score (-2 to +2): 0; Call: inactive

For DNTT (DNA nucleotidylexotransferase) #1, how do the results read?
two-siRNA summed score (-2 to +2): 0; Call: inactive

For DNTT (DNA nucleotidylexotransferase) #2, what does the deposit list?
two-siRNA summed score (-2 to +2): 0; Call: inactive

Reprinted from above (3 entries):
KCNK15 (potassium two pore domain channel subfamily K member 15): two-siRNA summed score (-2 to +2) = 0; Call = inactive
PCDHB15 (protocadherin beta 15): two-siRNA summed score (-2 to +2) = 0; Call = inactive
CLSPN (claspin): two-siRNA summed score (-2 to +2) = 0; Call = inactive
